Data taken from the supplement of paper PMC12889115.
The other results are listed elsewhere or left out. Values are raw readings; no control value is given beside them.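 First-pass screen: polymyxin B was added at a level that permeabilizes the Salmonella outer membrane while sparing the inner membrane. DMSO wells, with and without polymyxin B, defined maximum growth. Because plates differed from one another, each plate's data were ranked separately and the compounds with the lowest OD600 were carried forward as hits.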

Test system: Salmonella enterica serovar Typhimurium SL1344
Test: bacterial growth OD600 after 18 h with compound and polymyxin B; higher = more bacterial growth (less inhibition)
Conditions: 50 µM, Mueller-Hinton broth

Compound	bacterial growth OD600 (polymyxin B 1 µg/mL)	bacterial growth OD600 (polymyxin B 0.75 µg/mL)
COCc1cc(CN2CCN(Cc3ccc(OC)c(C)c3C)C(CCO)C2)ccc1OC (centres undefined)	0.821	
FC(F)(F)c1cccc(Cc2noc(CN3CC[C@@H]4CCCC[C@H]4C3)n2)c1	0.789	
O=C(c1ccc(NCc2cccnc2)nc1)N1CCC(CCn2cccn2)CC1		0.806
COc1ccc(CN2Cc3cc(Cl)ccc3OC(C)C2)cc1OC (centres undefined)		0.479
CCC1CN(C(=O)c2ccc(N(C)Cc3ccc(C)o3)nc2)CCN1C(C)C (centres undefined)		0.86
Cc1ccc(CN2CCN(C(=O)c3cn(C4CCCCC4)nn3)CC2=O)cc1C	0.931	
CCN(CCO)Cc1cn(C)nc1-c1ccc(C2CCCCC2)cc1	0.928	
Cc1nc2ncccn2c1C(=O)N1CCOC(Cc2cccc(F)c2)C1 (centres undefined)		0.883
Cc1cc(C(F)(F)F)nc(CCNC(=O)c2cn(CC3CCCO3)nn2)n1 (centres undefined)	0.812	

Random excerpt: 2 records from the list
Compound	bacterial growth OD600 (polymyxin B 1 µg/mL)	bacterial growth OD600 (polymyxin B 0.75 µg/mL)
O=C(c1ccc(NCc2cccnc2)nc1)N1CCC(CCn2cccn2)CC1		0.806
COCc1cc(CN2CCN(Cc3ccc(OC)c(C)c3C)C(CCO)C2)ccc1OC (centres undefined)	0.821	
